Reference: publication PMC11988948
Read-outs that look alike come from different tables or passages of the source. These are yes or no findings as the source states them, for the method shown. In cells and extracts the contact can be indirect. Some entries that bind do so weakly or less than the wild type.

Protein sequences, listed by entry. Tags and fused reporters are not part of them.
UniProt Q04207: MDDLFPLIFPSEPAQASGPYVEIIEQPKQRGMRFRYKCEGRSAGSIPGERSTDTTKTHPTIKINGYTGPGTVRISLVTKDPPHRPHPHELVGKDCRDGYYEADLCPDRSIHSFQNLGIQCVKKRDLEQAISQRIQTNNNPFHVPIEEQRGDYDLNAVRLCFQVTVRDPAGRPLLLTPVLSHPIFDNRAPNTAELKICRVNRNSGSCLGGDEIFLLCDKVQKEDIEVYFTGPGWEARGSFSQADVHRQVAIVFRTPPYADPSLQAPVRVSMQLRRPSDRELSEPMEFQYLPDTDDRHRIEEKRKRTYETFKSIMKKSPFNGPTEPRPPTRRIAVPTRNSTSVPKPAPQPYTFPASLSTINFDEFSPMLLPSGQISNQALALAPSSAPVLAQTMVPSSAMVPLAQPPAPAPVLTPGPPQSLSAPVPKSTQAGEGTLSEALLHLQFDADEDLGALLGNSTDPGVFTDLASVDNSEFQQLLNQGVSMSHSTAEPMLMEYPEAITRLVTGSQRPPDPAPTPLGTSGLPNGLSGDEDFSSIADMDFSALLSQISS

T1: vitamin D receptor (mouse (endogenous in mRTECs)) (UniProt P48281)
T1 sequence: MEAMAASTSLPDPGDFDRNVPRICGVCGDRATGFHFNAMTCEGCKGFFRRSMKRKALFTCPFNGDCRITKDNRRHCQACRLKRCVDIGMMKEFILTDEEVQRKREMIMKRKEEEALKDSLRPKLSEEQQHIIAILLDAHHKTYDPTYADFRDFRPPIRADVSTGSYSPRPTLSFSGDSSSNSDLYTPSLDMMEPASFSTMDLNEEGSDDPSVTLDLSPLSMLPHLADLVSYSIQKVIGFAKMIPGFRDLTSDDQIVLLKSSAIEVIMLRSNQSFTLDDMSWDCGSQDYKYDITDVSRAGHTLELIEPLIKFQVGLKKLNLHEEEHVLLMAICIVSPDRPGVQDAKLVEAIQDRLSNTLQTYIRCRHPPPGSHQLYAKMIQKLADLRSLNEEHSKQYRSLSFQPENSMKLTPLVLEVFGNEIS

B1: inhibitor of nuclear factor kappa-B kinase subunit beta (protein, UniProt O88351 1-757)
chain: MSWSPSLPTQTCGAWEMKERLGTGGFGNVIRWHNQATGEQIAIKQCRQELSPKNRNRWCLEIQIMRRLNHPNVVAARDVPEGMQNLAPNDLPLLAMEYCQGGDLRRYLNQFENCCGLREGAVLTLLSDIASALRYLHENRIIHRDLKPENIVLQQGEKRLIHKIIDLGYAKELDQGSLCTSFVGTLQYLAPELLEQQKYTVTVDYWSFGTLAFECITGFRPFLPNWQPVQWHSKVRQKSEVDIVVSEDLNGAVKFSSSLPFPNNLNSVLAERLEKWLQLMLMWHPRQRGTDPQYGPNGCFRALDDILNLKLVHVLNMVTGTVHTYPVTEDESLQSLKTRIQENTGILETDQELLQKAGLVLLPDKPATQCISDSKTNEGLTLDMDLVFLLDNSKINYETQITPRPPPESVSCILQEPKRNLSFFQLRKVWGQVWHSIQTLKEDCNRLQQGQRAAMMSLLRNNSCLSKMKNAMASTAQQLKAKLDFFKTSIQIDLEKYKEQTEFGITSDKLLLAWREMEQAVEQCGRENDVKHLVERMMALQTDIVDLQRSPMGRKQGGTLDDLEEQARELYRKLREKPRDQRTEGDSQEMVRLLLQAIQSFEKKVRVIYTQLSKTVVCKQKALELLPKVEEVVSLMNEDERTVVRLQEKRQKELWNLLKIACSKVRGPVSGSPDSMNVSRLSHPGQLMSQPSSACDSLPESDKKSEELVAEAHALCSRLESALQDTVKEQDRSFTTLDWSWLQMEDEERCSLEQACD

How the values were obtained:
[1] = target: T1, vitamin D receptor (mouse (endogenous in mRTECs)); assay: co-IP; 5 ng VDR antibody added to 40 μg protein sample overnight at 4 °C, protein A/G magnetic beads 2 h at 37 °C, washed, eluted in SDS sample buffer, Western blot; mRTECs under H/R with or without DKS26 (Figure 4C); sample and conditions of Figure 7A not stated
[2] = target: T1, vitamin D receptor (mouse (endogenous in mRTECs)); assay: as above; remark: listed apart in the source

Row | Molecule | binding [1] | binding [2]
1 | NF-κB P65 phosphorylated at serine 311 (from UniProt Q04207 1-549) | binds | –
2 | B1 | – | binds
